Test results from patent publication US20220257552A1, “METHODS OF PRESCREENING AND TREATING BREAST CANCERS WITH SELECTIVE ANDROGEN RECEPTOR MODULATORS” (priority 2021, published 2022).
At least one structure is not confirmed: it was looked up by name or label, or the drawing left a doubt.

Experiments:
GAR15-13 PDX = experiment: GAR15-13 palbociclib-resistant PDX in NSG mice; details: mouse, in vivo
Source text: (§1) Data were presented as mean values±s.e.m. […] Data represented the mean±s.e.m. of four replicate cell culture wells per condition. […] P values are indicated by gray asterisks, where ****P<0.0001 for all highlighted comparisons.
(§2) Tissue samples from an ER-positive, PR-negative, and HER2-negative (ER^+, PR^−, HER2^−) patient that progressed on (i.e., was resistant to) palbociclib were implanted into animal (NSG mice) models and grown as a patient-derived xenograft (PDX). […] This human tumor model also had amplification of the cyclin D1 (CCND1^Amp) gene which has been implicated as a driver of therapeutic resistance to CDKi. […] This is also observed in other models tested in vitro including a palbociclib resistant MCF-7 (MCF7 palbo^R) line (FIG. 44B).

MCF7 palboR cells = experiment: Proliferation of palbociclib resistant MCF-7 cells; format: cell-based; details: Formula IX 100 nM, Palb 125 nM
Source text: as §1, §2

In the case of `CC(=O)c1c(C)c2cnc(Nc3ccc(N4CCNCC4)cn3)nc2n(C2CCCC2)c1=O` [palbociclib, reference compound], the tumor growth response (GAR15-13 PDX) is reported as “relatively refractory” and the anti-proliferative activity (MCF7 palboR cells) is reported as “modest activity”.
